Measured values taken from US12110503B2, “Method for differentiation of ocular cells and use thereof” (FUJIFILM Cellular Dynamics, Inc., priority 2018, dated 2024).

System: PRP cell population
Test: Flow analysis of depletion marker candidates against recoverin
Format: cell-based, human
Details: depletion markers

B1: CD9: Integral membrane protein associated with integrins; depletion marker (protein, UniProt P21926 2-228, looked up)
CD9 antigen: PVKGGTKCIKYLLFGFNFIFWLAGIAVLAIGLWLRFDSQTKSIFEQETNNNNSSFYTGVYILIGAGALMMLVGFLGCCGAVQESQCMLGLFFGFLLVIFAIEIAAAIWGYSHKDEVIKEVQEFYKDTYNKLKTKDEPQRETLKAIHYALNCCGLAGGVEQFISDICPKKDVLETFTVKSCPDAIKEVFDNKFHIIGAVGIGIAVVMIFGMIFSMILCCAIRRNREMV
- % co-expression with RCVRN: 5.4%
- % antigen only (other cell types labeled): 32.7%
